## Library screen at single concentrations

Protein sequences, listed by entry. Tags and fused reporters are not part of them. Residues count along the entry.
UniProt Q8IDJ8, 1-583: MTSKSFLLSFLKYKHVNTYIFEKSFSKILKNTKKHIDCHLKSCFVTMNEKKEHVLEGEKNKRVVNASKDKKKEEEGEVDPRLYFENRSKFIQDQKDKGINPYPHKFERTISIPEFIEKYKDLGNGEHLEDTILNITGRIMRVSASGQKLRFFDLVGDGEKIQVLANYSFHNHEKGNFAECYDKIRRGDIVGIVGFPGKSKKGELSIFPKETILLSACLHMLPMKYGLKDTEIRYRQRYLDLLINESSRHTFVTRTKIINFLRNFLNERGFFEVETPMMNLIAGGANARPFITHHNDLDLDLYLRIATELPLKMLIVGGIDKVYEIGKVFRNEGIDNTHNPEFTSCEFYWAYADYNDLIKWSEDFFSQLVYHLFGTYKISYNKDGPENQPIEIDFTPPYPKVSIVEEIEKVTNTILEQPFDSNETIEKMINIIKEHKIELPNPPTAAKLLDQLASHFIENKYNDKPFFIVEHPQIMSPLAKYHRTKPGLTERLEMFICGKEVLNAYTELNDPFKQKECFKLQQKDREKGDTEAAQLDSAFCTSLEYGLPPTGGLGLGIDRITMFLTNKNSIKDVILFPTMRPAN
UniProt A4I591, 1-473: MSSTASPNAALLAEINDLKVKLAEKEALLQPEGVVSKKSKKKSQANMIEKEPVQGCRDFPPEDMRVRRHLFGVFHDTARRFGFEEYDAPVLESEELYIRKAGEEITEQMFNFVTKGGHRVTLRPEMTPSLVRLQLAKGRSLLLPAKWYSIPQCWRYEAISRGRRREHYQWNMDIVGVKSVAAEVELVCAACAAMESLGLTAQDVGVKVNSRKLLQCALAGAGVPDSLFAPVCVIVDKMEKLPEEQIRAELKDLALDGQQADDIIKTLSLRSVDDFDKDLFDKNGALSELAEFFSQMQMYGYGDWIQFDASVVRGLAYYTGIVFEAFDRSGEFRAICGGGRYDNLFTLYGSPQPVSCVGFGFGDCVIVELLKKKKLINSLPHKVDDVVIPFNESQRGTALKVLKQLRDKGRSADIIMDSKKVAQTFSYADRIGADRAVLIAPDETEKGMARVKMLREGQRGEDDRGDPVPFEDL

The values are deposited in ChEMBL (CHEMBL3988442, “University of Dundee, Small-Polar-MMV Screening Library” (2021)).

Each number is a percent effect as filed.
The controls that fix the scale are not given in the record; negative values are as filed.
The compounds are a random part of those screened.
A dash means the value is not listed here; it may have been measured.

T. brucei: 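Whole-parasite assay of Trypanosoma brucei over 72 hours; the read-out is not stated. Tested at 30 µM. Higher reads as stronger inhibition (inferred: compounds with an IC50 in retests scored well above the rest). Values scatter widely below zero; nearly all retest evidence comes from the higher of the two concentrations used. Of about 64,000 compounds tested this way, about 940 (1.5%) reached 50% or more in at least one test.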
PfKRS1: 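Enzyme assay of the cytosolic lysyl-tRNA synthetase in 384-well plates, read by luminescence. Target: Lysine-tRNA ligase, Plasmodium falciparum 3D7 (UniProt Q8IDJ8). Tested at 30 µM. Higher reads as stronger inhibition, judged from the few compounds that gave an IC50. About 69,000 compounds were tested under these conditions; 0.071% (about 49) showed 50% or more at least once.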
LiHisRS: 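Histidine-tRNA ligase, Leishmania infantum (UniProt A4I591). Enzyme assay of histidyl-tRNA synthetase; the read-out is not stated. Compounds at 30 µM. Higher reads as stronger inhibition (inferred: compounds with an IC50 in retests scored well above the rest). The assay is labelled LdHisRS but filed under L. infantum. About 69,000 compounds were tested under these conditions; 0.6% (about 410) showed 50% or more at least once.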
Toxoplasma: 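Assay of Toxoplasma gondii numbers, read through their beta-galactosidase reporter with a colour substrate. Tested at 10 µM. Higher reads as fewer parasites (inferred from which compounds were picked for retests). Size under these conditions: about 67,000 compounds, about 260 of them at 50% or above in at least one test.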

compound	T. brucei	PfKRS1	LiHisRS	Toxoplasma
COCCN1CCN(CC(=O)N(C)Cc2ccsc2)CC1C (centres unmarked)	6.385	6.667	7.071	2.324
Cc1cn2c(=O)c(-c3ccnc(N(C)C4CCCCC4)n3)cnc2s1	-6.255	1.594	8.571	-1.391
NC(=O)NC(CC(=O)NCCc1cccc(F)c1)c1cccs1 (centres unmarked)	-9.663	4.686	15.05	-15.55
Cc1nc(COCc2cnc3n2CCN(C)C3C)cs1.O=C(O)C(F)(F)F (centres unmarked)	14.84	-	-	5.172
NC(=O)CN(C(=O)c1cccc(C(F)(F)F)c1)C1CCCC1	2.819	8.247	14.91	3.155
CC(C1CCN(Cc2cccc(OC(F)F)c2)CC1)N1CCOCC1 (centres unmarked)	-22.11	0.7025	9.375	0.07299
Cc1c(C)n(Cc2ccccn2)c2nc3c(c(N)c12)CCCCCC3	-31.45	6.692	21.05	44.96
Cc1cnc(CN(C)Cc2cccc(OC(F)(F)F)c2)cn1	-5.562	1.521	5.181	-0.6885
CCn1nnc2c1C(COCCN(C)C)CN(Cc1ccco1)C2 (centres unmarked)	-	3.429	1.887	-
Cn1cc(NC(=O)N2CCC(c3ccccc3)CC2)ccc1=O	-3.831	45.43	102.1	-13.61
CC(=O)N1[C@H](Cn2cncn2)C[C@@H]2CN(Cc3ccccn3)CC[C@@H]21	-	-3.686	-5.556	-
Cc1ccc(NC2CCN(C(=O)c3cnn(C(C)(C)C)c3)CC2)nn1	-	6.625	21.15	12.88
Cc1ncc2c(c1C(=O)O)CCN(c1ncc(F)cn1)C2	-	4.805	17.95	-
[H][C@]12CC[C@]([H])(CN(c3nccc(OC)n3)C1)N(CC1CC1)C2	-6.759	-	-	-9.985
Cn1cnnc1C1CCCN(C(=O)NCCc2ccccc2F)C1 (centres unmarked)	-5.733	0.1891	13.33	-4.903
CC(C)COC(=O)N1CC(=O)N(CCc2ccccc2)CC(O)C1 (centres unmarked)	-29.93	4.69	8.163	14.33
Cc1cc(C(=O)NC2(c3cccc(F)c3)CCOCC2)no1	-24.46	-2.244	9.677	-24.36
C[C@H](c1ccc(F)cc1)n1c(C2CCN(C)CC2)n[nH]c1=O	-17.25	3.209	-1.613	-
CCNC(=O)C1CCN(Cc2ccccc2OCC(F)(F)F)CC1	-15.63	-2.169	4.145	5.508
COc1cccc(CNc2nc(O)cc(C3CC(=O)N(C)C3)n2)c1 (centres unmarked)	5.173	7.877	16.67	4.42
CCC(C#N)NC(=O)c1ccc(Oc2cccnc2)cc1 (centres unmarked)	1.535	2.933	14.67	-3.821
CN1[C@H](Cn2cccn2)C[C@@H]2CN(C(=O)Cc3cccs3)CC[C@@H]21	-	-8.996	14.63	-
CC(O)CN1CCN(C(=O)c2cc3ccccc3n2C)CC1 (centres unmarked)	-	-1.549	0	8.551
CN1CC2(CCC1=O)CCN(CC[C@@H](O)c1ccccc1)CC2	1.267	-3.85	15.04	-3.738
[H][C@]12CN(Cc3cc(C)no3)CCN1C[C@H](c1ccccc1)[C@H]2C(=O)NC	7.834	-	-	-38.51
CCOCC(=O)N1Cc2[nH]nc(COCC3CC3)c2C1.O=C(O)C(F)(F)F	-43.23	-	-	0.1618
Cc1cccc(CN2CCC3(CCCN(C(=O)CN(C)C)C3)C2=O)n1 (centres unmarked)	-28.27	0.2499	16.81	-6.321
O=C(c1ccc2c(c1)OCO2)N1CCCC(n2cccn2)C1 (centres unmarked)	12.65	1.71	35.71	8.443
O=C([C@H]1CCCO1)N1CCCC2(CCN(Cc3ccncc3)C2=O)C1 (some centres unmarked)	-	-2.092	4.854	-
CCCc1ccc(N2CCN(Cc3nc4ccccc4n3C)CC2)cc1	90.43	-9.558	14.94	27.87
O=S(=O)(NCc1ccc(S(=O)(=O)N2CCCC2)s1)c1cc(Cl)cc(Cl)c1	-21.78	2.715	13.16	8.717
COc1ccc(N2CCN(C(=O)CCn3nccc3C)C(C)C2)cc1 (centres unmarked)	-15.95	2.796	9.333	-3.388
CNC(=O)c1ccc2c(c1)C1(CCN(CC(C)C)CC1)C(=O)N2	-	21.95	22.64	-
O=C(c1ccc(S(=O)(=O)NCCc2ccccn2)cc1)N1CCCC1	-6.552	0.699	10.2	-0.1341
CCCNC(=O)C(C)Nc1ccc(OCC)cc1 (centres unmarked)	-9.043	1.415	9.524	-25.1
COC[C@@]12CCO[C@@H]1CCN(Cc1ccccc1F)C2	-	0.3316	9.524	-
CC(=O)N1CCC2(CC1)c1ncc(-c3cccnc3)n1CCN2C	-60.1	2.635	13.64	-29.38
CCC[C@@H]1CN(C(=O)c2conc2-c2ccccc2)C[C@H]1N(C)C	-51.47	-2.84	-5.714	-5.807
CN(CCc1ccccc1)Cc1c(C2CCNCC2)[nH]c2ncccc12.Cl	35.36	-	-	-18.56
CCn1c(CN(C)C)nnc1C1CCN(Cc2cccc(OC)c2)CC1	-27.9	-7.682	10.38	-9.442
[H][C@@]12CO[C@@H](CNS(C)(=O)=O)[C@]1([H])CCN(c1cccc(C)n1)C2	-12.62	-	-	5.739
COCCC(=O)N1CCCCC1c1ccc(F)cc1 (centres unmarked)	-50.35	0.6737	19.78	4.587
N[C@@H]1CCC[C@@H](Oc2ccc(F)cc2Oc2cccc(F)c2)[C@@H]1O	3.71	-0.192	-15.79	2.748
CSc1ccc(C(=O)N2CC(=O)N(CC3CC3)CC(O)C2)cc1 (centres unmarked)	-30.58	4.118	8.163	-13.68
O=C(c1cccnc1)N1CCc2c(COCC3CC3)cncc2C1	-9.476	-0.6734	17.65	-5.428
COCCCN1CCC(NC(=O)C2CC2)CC1	-45.72	3.412	8.065	14.88
O=C(CCc1c(F)cccc1F)NS(=O)(=O)c1ccc2c(c1)OCCO2	-22.88	0.8544	4.348	-12.42
O=C(COCc1nc(-c2ccncc2)no1)N1CCCC1	18.49	2.517	19.81	20.07
CCn1nccc1C(=O)NC(Cn1cccn1)C(C)(C)C (centres unmarked)	-6.087	4.06	18.56	4.007
CNC(=O)c1ccc(S(=O)(=O)NCCc2ccccn2)cc1	-21.85	6.415	19.48	-2.599
CCc1noc(C)c1C(=O)N(C)Cc1ncc(C)c(OC)c1C	2.95	1.3	21.33	4.548
CCC(O)Cn1nc(CCSC)nc1-c1ccc2c(c1)OCCO2 (centres unmarked)	-18.53	-0.5398	14.47	-0.8323
CN1C[C@H](NC(=O)c2cscn2)[C@@H]2OCCC[C@@H]21	-	4.418	6.364	-
COCCN1CCC(c2cncc(N(C)C)n2)CC1	-16.35	4.437	11.46	-1.532
O=C(NCC1CCCN1Cc1ccccc1)NCC1(O)CCC1 (centres unmarked)	-32.46	-5.868	-6.25	3.169
[H][C@]12CCN(C(=O)NCc3ccccc3)C[C@@]1([H])OCCN(C(C)=O)C2	-54.45	-	-	-2.868
CO[C@@H]1CN(C)S(=O)(=O)[C@@]12CCN(Cc1ccccc1)C2	-24.88	4.007	6.122	5.284
C[C@@H]1CN(Cc2cccc(F)c2)C[C@]12CCN(Cc1cccnc1)C2=O	-	3.343	24.77	-

The last 6 entries again:

- CN1C[C@H](NC(=O)c2cscn2)[C@@H]2OCCC[C@@H]21 | PfKRS1: 4.418%; LiHisRS: 6.364%
- COCCN1CCC(c2cncc(N(C)C)n2)CC1 | T. brucei: -16.35%; PfKRS1: 4.437%; LiHisRS: 11.46%; Toxoplasma: -1.532%
- O=C(NCC1CCCN1Cc1ccccc1)NCC1(O)CCC1 (centres unmarked) | T. brucei: -32.46%; PfKRS1: -5.868%; LiHisRS: -6.25%; Toxoplasma: 3.169%
- [H][C@]12CCN(C(=O)NCc3ccccc3)C[C@@]1([H])OCCN(C(C)=O)C2 | T. brucei: -54.45%; Toxoplasma: -2.868%
- CO[C@@H]1CN(C)S(=O)(=O)[C@@]12CCN(Cc1ccccc1)C2 | T. brucei: -24.88%; PfKRS1: 4.007%; LiHisRS: 6.122%; Toxoplasma: 5.284%
- C[C@@H]1CN(Cc2cccc(F)c2)C[C@]12CCN(Cc1cccnc1)C2=O | PfKRS1: 3.343%; LiHisRS: 24.77%